Experimental data published in the supplement of paper PMC12819154, “High-throughput peptide-centric local stability assay extends protein–ligand identification to membrane proteins, tissues and bacteria” (Nature Structural & Molecular Biology, 2025).
This is one part of the list. Most values lie at the level of the controls, where differences are scatter.

Amino acid sequences for entries named in this document (tags omitted). A change or cut given only in a name is not applied to a line headed by its entry.
UniProt Q8C5L6: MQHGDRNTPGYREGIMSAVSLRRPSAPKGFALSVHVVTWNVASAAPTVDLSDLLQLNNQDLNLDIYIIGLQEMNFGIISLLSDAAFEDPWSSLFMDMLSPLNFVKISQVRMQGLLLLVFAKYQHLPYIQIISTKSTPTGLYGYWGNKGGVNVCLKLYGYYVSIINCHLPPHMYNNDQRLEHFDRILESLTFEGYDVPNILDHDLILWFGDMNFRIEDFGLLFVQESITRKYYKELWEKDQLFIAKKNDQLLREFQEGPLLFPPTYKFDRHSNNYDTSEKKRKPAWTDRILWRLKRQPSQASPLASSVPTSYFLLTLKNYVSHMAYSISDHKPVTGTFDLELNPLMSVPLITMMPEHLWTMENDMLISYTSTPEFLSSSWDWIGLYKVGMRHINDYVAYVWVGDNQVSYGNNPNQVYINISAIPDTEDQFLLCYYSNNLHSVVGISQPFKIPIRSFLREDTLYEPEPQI
UniProt Q8CAA7: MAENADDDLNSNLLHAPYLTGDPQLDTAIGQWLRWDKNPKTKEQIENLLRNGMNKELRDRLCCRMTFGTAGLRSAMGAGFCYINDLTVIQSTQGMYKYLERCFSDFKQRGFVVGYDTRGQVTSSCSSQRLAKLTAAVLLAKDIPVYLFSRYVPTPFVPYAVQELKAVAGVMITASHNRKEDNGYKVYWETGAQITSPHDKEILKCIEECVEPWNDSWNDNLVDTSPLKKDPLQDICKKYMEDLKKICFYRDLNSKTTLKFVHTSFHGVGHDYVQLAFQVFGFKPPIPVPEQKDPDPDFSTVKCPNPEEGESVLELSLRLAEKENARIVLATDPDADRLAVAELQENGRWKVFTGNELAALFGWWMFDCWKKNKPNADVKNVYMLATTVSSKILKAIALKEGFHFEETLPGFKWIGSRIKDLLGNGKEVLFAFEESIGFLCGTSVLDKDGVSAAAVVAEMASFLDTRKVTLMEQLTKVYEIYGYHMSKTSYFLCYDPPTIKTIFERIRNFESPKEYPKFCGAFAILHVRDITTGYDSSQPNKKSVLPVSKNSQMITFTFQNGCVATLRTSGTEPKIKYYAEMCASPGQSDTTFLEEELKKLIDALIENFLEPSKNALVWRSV
UniProt Q8BWZ3, whole entry: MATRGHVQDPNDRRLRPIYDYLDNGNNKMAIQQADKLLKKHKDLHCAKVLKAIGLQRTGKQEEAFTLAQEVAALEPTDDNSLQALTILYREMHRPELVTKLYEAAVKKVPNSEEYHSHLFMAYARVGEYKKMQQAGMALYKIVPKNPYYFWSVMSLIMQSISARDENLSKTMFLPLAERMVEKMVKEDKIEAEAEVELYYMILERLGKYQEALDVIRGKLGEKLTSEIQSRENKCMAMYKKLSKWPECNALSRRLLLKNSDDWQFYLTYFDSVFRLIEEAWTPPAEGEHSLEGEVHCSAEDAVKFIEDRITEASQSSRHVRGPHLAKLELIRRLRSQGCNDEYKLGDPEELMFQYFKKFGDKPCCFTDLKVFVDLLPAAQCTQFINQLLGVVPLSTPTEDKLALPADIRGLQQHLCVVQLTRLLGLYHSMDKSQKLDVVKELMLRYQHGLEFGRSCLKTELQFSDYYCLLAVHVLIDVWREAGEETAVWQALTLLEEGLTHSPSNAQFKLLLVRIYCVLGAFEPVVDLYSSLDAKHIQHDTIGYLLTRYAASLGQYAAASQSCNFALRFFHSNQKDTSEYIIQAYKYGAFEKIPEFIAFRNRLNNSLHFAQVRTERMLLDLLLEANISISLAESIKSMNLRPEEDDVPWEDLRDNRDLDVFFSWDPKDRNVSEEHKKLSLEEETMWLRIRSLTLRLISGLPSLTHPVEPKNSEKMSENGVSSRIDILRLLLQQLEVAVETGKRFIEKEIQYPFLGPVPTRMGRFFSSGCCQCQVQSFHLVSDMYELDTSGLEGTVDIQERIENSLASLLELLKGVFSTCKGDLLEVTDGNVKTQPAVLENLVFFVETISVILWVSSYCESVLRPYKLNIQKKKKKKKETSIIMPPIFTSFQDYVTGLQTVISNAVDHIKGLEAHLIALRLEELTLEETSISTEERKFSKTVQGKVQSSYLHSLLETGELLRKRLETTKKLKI
UniProt Q8C2S0: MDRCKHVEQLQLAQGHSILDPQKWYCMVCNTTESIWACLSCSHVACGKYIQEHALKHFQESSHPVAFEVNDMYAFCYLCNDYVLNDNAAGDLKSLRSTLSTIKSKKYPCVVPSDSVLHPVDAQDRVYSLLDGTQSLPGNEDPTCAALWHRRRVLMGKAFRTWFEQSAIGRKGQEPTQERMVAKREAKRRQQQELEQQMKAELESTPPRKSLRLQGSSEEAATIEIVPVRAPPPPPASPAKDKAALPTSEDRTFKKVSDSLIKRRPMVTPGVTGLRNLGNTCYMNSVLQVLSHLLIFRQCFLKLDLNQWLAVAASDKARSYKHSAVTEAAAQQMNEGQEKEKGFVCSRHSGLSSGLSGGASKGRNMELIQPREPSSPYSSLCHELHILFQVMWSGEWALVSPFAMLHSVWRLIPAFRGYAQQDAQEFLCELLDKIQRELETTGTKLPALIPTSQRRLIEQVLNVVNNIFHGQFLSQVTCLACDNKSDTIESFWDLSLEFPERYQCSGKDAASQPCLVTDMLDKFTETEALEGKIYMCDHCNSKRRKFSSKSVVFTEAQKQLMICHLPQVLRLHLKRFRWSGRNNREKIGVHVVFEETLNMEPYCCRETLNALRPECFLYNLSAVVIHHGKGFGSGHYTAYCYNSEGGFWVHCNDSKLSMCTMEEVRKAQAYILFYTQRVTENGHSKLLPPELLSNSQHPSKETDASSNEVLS
UniProt Q8BVP5: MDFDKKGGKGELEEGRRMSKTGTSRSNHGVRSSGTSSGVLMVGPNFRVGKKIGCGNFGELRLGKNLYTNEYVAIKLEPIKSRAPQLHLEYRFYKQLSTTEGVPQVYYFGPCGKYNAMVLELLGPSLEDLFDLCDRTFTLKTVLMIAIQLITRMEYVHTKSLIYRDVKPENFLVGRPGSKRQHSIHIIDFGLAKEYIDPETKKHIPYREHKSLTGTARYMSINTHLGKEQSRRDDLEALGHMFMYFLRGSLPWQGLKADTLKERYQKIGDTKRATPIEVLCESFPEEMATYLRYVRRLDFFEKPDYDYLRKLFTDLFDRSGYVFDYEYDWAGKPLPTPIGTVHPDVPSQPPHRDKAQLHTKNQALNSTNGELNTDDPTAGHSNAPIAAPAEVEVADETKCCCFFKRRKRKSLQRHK
UniProt Q8BZ32: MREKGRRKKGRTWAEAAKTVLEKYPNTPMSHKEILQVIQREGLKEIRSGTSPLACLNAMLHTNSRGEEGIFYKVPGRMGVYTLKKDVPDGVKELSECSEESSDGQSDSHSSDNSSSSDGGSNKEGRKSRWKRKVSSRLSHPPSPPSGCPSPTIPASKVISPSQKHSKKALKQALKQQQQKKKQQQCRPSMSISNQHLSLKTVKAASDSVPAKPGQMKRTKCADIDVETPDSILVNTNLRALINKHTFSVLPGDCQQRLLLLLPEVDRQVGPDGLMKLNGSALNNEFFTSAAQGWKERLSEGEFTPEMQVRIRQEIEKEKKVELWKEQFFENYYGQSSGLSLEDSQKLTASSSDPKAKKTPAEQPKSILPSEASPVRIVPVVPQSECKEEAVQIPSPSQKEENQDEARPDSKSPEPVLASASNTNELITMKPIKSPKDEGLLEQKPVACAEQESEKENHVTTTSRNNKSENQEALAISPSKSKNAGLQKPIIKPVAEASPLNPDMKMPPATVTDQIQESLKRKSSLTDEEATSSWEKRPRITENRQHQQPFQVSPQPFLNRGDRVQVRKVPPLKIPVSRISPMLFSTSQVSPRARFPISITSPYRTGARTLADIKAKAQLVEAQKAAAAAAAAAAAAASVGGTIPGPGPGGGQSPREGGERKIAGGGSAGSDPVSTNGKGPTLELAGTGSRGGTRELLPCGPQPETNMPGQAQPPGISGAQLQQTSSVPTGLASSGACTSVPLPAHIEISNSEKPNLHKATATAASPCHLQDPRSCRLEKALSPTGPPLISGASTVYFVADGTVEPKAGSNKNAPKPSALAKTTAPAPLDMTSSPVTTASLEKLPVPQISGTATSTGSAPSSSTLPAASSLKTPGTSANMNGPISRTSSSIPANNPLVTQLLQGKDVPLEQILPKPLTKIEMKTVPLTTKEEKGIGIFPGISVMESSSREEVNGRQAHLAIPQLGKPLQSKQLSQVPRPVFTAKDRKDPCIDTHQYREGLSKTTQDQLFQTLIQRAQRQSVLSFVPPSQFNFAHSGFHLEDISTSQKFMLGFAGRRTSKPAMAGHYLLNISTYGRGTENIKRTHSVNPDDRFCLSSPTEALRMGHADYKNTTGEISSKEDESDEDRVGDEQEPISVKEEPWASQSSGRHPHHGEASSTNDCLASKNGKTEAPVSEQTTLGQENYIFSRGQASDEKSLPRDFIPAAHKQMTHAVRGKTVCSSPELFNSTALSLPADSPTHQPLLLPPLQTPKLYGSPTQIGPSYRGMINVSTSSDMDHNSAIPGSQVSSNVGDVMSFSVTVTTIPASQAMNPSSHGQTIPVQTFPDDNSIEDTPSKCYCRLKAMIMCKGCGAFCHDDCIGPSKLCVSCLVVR
UniProt Q8C3I8: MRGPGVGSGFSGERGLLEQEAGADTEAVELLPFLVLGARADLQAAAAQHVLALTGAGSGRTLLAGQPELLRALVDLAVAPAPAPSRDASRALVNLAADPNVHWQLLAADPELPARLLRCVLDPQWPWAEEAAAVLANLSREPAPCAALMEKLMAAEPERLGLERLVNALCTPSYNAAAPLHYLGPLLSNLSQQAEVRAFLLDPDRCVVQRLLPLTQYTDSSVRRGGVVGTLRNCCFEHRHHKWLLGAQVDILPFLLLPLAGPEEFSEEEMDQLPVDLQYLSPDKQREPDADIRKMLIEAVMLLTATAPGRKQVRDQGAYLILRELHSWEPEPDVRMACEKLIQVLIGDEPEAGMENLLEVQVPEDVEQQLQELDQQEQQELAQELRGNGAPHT
UniProt Q8C2Q3: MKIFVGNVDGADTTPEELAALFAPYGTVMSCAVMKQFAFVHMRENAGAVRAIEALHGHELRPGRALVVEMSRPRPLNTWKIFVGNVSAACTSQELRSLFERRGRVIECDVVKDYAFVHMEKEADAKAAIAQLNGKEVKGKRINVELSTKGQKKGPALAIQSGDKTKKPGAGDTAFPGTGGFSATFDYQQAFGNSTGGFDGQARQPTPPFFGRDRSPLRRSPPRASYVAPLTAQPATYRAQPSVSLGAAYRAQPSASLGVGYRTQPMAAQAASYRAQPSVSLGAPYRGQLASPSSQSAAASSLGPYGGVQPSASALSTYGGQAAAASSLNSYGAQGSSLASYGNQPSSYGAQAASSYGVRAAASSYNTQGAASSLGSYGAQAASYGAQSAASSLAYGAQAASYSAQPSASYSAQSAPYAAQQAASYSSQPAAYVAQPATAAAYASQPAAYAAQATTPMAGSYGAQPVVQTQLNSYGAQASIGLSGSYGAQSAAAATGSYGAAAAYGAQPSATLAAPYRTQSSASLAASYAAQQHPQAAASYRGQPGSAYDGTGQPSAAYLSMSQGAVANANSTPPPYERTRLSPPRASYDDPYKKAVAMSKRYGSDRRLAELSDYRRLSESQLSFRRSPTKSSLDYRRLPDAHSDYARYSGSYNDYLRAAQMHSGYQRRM
UniProt Q8C7E7: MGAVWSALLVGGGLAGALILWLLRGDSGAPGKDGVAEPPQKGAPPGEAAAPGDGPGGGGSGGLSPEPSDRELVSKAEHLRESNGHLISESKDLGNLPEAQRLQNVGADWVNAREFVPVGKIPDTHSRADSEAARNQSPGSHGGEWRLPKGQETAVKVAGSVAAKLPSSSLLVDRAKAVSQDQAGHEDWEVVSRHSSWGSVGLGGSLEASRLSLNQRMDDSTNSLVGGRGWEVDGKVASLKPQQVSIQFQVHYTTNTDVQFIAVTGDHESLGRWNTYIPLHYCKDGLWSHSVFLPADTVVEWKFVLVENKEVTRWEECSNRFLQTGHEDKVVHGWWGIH

compound: CN[C@@H]1C[C@H]2O[C@@](C)([C@@H]1OC)n1c3ccccc3c3c4c(c5c6ccccc6n2c5c31)C(=O)NC4 [staurosporine]; assay: log2 fold change of tryptic peptide abundance, ligand vs vehicle (limited proteolysis) (log2 ratio); higher = more trypsin-susceptible (destabilized); details: ligand concentration: 20 uM; sample: mouse liver crude lysate; replicate design: treated separately

Target	log2 fold change
UniProt Q8C5L6 (peptide sequence: EGIMSAVSLR, peptide start residue: 13)	0.0775
UniProt Q8CAA7 (peptide sequence: MTFGTAGLR, peptide start residue: 65)	-0.426
UniProt Q8BZN6 (peptide sequence: HLALAVLK, peptide start residue: 1173)	-0.371
UniProt Q8BWZ3 (peptide sequence: KMQQAGMALYK, peptide start residue: 131)	0.288
UniProt Q8C2S0 (peptide sequence: RFRWSGR, peptide start residue: 552)	-0.0779
UniProt Q8BVP5 (peptide sequence: EYIDPETKK, peptide start residue: 191)	-1.14
UniProt Q8BZ32 (peptide sequence: HTFSVLPGDCQQR, peptide start residue: 245)	0.594
UniProt Q8C3I8 (peptide sequence: ELHSWEPEPDVR, peptide start residue: 324)	-0.302
UniProt Q8C2Q3 (peptide sequence: RLSESQLSFR, peptide start residue: 616)	0.595
UniProt Q8C0M0 (peptide sequence: SSNLVVSHSR, peptide start residue: 790)	-0.143
UniProt Q8C7E7 (peptide sequence: FLQTGHEDK, peptide start residue: 321)	-0.261
UniProt Q8CAK3 (peptide sequence: STHTHSCSAADCYNRR, peptide start residue: 199)	0.687

Not a retest: an excerpt of the list.
Target	log2 fold change
UniProt Q8CAA7 (peptide sequence: MTFGTAGLR, peptide start residue: 65)	-0.426
UniProt Q8BZN6 (peptide sequence: HLALAVLK, peptide start residue: 1173)	-0.371
